This is an account of results in the supplement of paper PMC8616043.

Where a name gives a salt, the structure may show the parent alone. Some of the results follow. This data set is noisy: repeats of one test often differ as much as different tests do.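 The cells are human U-2 OS cells that stably carry a GFP sensor with a nuclear import signal and a classical export signal. They were transfected to make PR50, a 50-repeat proline–arginine dipeptide protein from the ALS/FTD gene C9ORF72. Each well's nuclear-minus-cytoplasm GFP signal was scaled from in-plate DMSO (low) to PR-only wells (high), then scored against the other test wells on the plate; compounds scoring well below zero were called hits that reverse the PR effect.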

The subject of the assay is U-2 OS NCT-C biosensor cells expressing PR50. The experiment in a line: Z-score of normalised NCT-C biosensor translocation index in PR50-expressing cells; higher = more nuclear biosensor (more disrupted nuclear export). The note with it: 3 µM; 24 h.
Consider `COc1ccccc1N1CCN(CCCNc2cc(=O)n(C)c(=O)n2C)CC1` [Urapidil hydrochloride], for which the Z-score was inactive: -0.637.
For `CCCCCCCCCCCCCCSCC(=O)O` [Tetradecylthioacetic acid], the Z-score is inactive: -1.37.
Turning to `C#CCN(C)CCCOc1ccc(Cl)cc1Cl` [Clorgyline hydrochloride], the Z-score was inactive: -0.975.
With `O=C(O)CN(CCN(CC(=O)O)CC(=O)O)CCN(CC(=O)O)CC(=O)O` [Diethylenetriamine pentaacetic acid], the Z-score is inactive: -0.524.
For the compound `CC(C)(CO)Cc1cc(C(C)(C)C)c(O)c(C(C)(C)C)c1`, the Z-score was inactive: 1.99.
With `CC(C)NCC(O)c1cc(O)cc(O)c1` (centres undefined) [Metaproterenol Hemisulfate (Orciprenaline)], the Z-score is inactive: 0.383.
Regarding `CC(C)NCC(O)c1cc(O)cc(O)c1` (centres undefined) [Metaproterenol hemisulfate], the Z-score was inactive: -0.869.
The figure for `CC(C(=O)Nc1cccc(/N=C/c2c(O)ccc3ccccc23)c1)c1ccccc1` (centres undefined) [Salermide] is active: -2.34; for `O=[N+]([O-])c1cc2nc(O)c(O)nc2cc1[N+](=O)[O-]` it is inactive: 1.04; for `CC(=O)/C(C)=N/O` [2,3-Butanedione monoxime] it is inactive: 0.622.
Turning to `O=C1[C@H](CC[C@H](O)c2ccc(F)cc2)[C@@H](c2ccc(O)cc2)N1c1ccc(F)cc1` [Ezetimibe], the Z-score is inactive: -0.0882.
In the case of `O=C(O)c1cccc(-c2ccc(-c3cn(C(=O)N4CCCCC4Cc4ccccc4)nn3)cc2)c1` (centres undefined) it was inactive: 2.44; in that of `Cc1cnc(C(=O)NCCc2ccc(S(=O)(=O)NC(=O)NC3CCCCC3)cc2)cn1` [Glipizide], inactive: -0.27.
The figure for `O=C(O)COCCN1CCN([C@H](c2ccccc2)c2ccc(Cl)cc2)CC1` [Levocetirizine Dihydrochloride] is inactive: 0.103; for `CC(O)(P(=O)(O)O)P(=O)(O)O` [Etidronate Disodium] it is inactive: 0.704; for `CCCCNc1ccc(C(=O)OCCN(C)C)cc1` [Tetracaine hydrochloride] it is inactive: -0.597.
In the case of `CCCCCOC(=O)Nc1nc(=O)n([C@@H]2O[C@H](C)[C@@H](O)[C@H]2O)cc1F` [Capecitabine] it was inactive: 0.365.
As to `COc1ccc2c(c1)CC[C@@H]1[C@@H]2CC[C@]2(C)[C@@H](NCCCCCCN3C(=O)CCC3=O)CC[C@@H]12`, the Z-score is inactive: 0.374.
In the case of `CC(C)=CCC/C(C)=C/CC/C(C)=C/CSc1ccccc1C(=O)O` [Salirasib] it was inactive: 0.462.
In the case of `CCN(CC)CCOc1ccc(C(=C(Cl)c2ccccc2)c2ccccc2)cc1` [Clomiphene Citrate] it was inactive: 0.343; in that of `Cc1ccc(C=Nc2ccccc2C(=O)Nc2ccccc2)s1` [Retro-2], inactive: -0.439; in that of `C[C@H](CSC(=O)c1ccccc1)C(=O)N1C[C@@H](Sc2ccccc2)C[C@H]1C(=O)O` [Zofenopril calcium], inactive: -0.0375.
In the case of `N=C(N)NCCCCN` [Agmatine sulfate] it was inactive: 0.209; in that of `O=C1C(O)=C([C@H]2CC[C@H](c3ccc(Cl)cc3)CC2)C(=O)c2ccccc21` [Atovaquone], inactive: -0.478; in that of `CC(C)NCC(O)c1ccc(O)c(O)c1` (single isomer, unassigned; (-)) [(-)-Isoproterenol hydrochloride], inactive: 0.0377.
On to `Cc1ccccc1C(OCCN(C)C)c1ccccc1` (centres undefined) [Orphenadrine hydrochloride], for which the Z-score is inactive: 0.227.
The figure for `Cc1ccccc1C(OCCN(C)C)c1ccccc1` (centres undefined) [Orphenadrine Citrate] is inactive: 1.09; for `NCCCC(N)(C(=O)O)C(F)F` (centres undefined) [Eflornithine·HCl] it is inactive: 0.127.
In the case of `COc1c2ccoc2cc2oc(=O)ccc12` [Bergapten] it was inactive: 1.26; in that of `O=C1CCc2ccc(OCCCCN3CCN(c4cccc(Cl)c4Cl)CC3)cc2N1` [Aripiprazole], inactive: 0.0855; in that of `CN(C)CCOC(c1ccc(Cl)cc1)c1ccccn1` (centres undefined) [Carbinoxamine Maleate], inactive: -0.177.
In the case of `COC(=O)C1=C(C)NC(C)=C(C(=O)OCC(C)C)C1c1ccccc1[N+](=O)[O-]` (centres undefined) [Nisoldipine] it was inactive: 0.278; in that of `COc1ccc([C@@H]2OC[C@@H]3[C@H]2CO[C@H]3c2ccc(OC)c(OC)c2)cc1OC` [Eudesmine], inactive: -0.306; in that of `CC(C(=O)O)c1ccc(C(=O)c2cccs2)cc1` (centres undefined) [Suprofen], inactive: -0.89.
In the case of `COc1cc2ncnc(Nc3ccc(F)c(Cl)c3)c2cc1OCCCN1CCOCC1` [Gefitinib], the Z-score is inactive: -1.28.
In the case of `CN1CCC[C@@H]1CCO[C@](C)(c1ccccc1)c1ccc(Cl)cc1` [Clemastine fumarate salt] it was inactive: -0.498; in that of `CN1CCC[C@@H]1CCO[C@](C)(c1ccccc1)c1ccc(Cl)cc1` [Clemastine Fumarate], inactive: 1.65; in that of `CC(C)[C@H](N)C(=O)OCC(CO)OCn1cnc2c(=O)[nH]c(N)nc21` (some centres undefined) [Valganciclovir hydrochloride hydrate], inactive: -0.213.
Take `O=C(c1ccc(OCCCc2c[nH]cn2)cc1)C1CC1` [Ciproxifan hydrochloride]: the Z-score is inactive: -0.782.
As to `CC[C@@H]([C@H](C)O)n1ncn(-c2ccc(N3CCN(c4ccc(OC[C@@H]5CO[C@@](Cn6cncn6)(c6ccc(F)cc6F)C5)cc4)CC3)cc2)c1=O` [Posaconazole], the Z-score is inactive: -0.407.
In the case of `CCCCC[C@H](O)/C=C/[C@H]1[C@H](O)CC(=O)[C@@H]1CCCCCCC(=O)O` [Alprostadil] it was inactive: 0.296.
In the case of `CCCCC[C@H](O)/C=C/[C@H]1[C@H](O)CC(=O)[C@@H]1CCCCCCC(=O)O` [Prostaglandin E1] it was inactive: -1.49.
On to `O=C(O)c1cccnc1C(=O)O` [Quinolinic acid], for which the Z-score was inactive: -0.0352.
In the case of `CC/C(=C(\c1ccccc1)c1ccc(OCCN(C)C)cc1)c1ccccc1` [Tamoxifen citrate] it was inactive: -0.146; in that of `CC/C(=C(\c1ccccc1)c1ccc(OCCN(C)C)cc1)c1ccccc1` [Tamoxifen Citrate], inactive: 0.322; in that of `CC/C(=C(\c1ccccc1)c1ccc(OCCN(C)C)cc1)c1ccccc1` [Tamoxifen], inactive: 0.274.
Take `NCc1ccc(S(N)(=O)=O)cc1` [Mafenide·HCl]: the Z-score is inactive: 1.15.
As for `CC(C)(C)NCC(O)c1cc(O)cc(O)c1` (centres undefined) [Terbutaline Hemisulfate], the Z-score was inactive: -0.596.
On to `CC(C)(C)NCC(O)c1cc(O)cc(O)c1` (centres undefined) [Terbutaline hemisulfate], for which the Z-score is inactive: 0.518.
With `O=C(O)CCCCC1CCSS1` (racemic) [(+-)-alpha-Lipoic Acid], the Z-score is inactive: 0.47.
Consider `CC[N+](CC)(CC)CCOc1cccc(OCC[N+](CC)(CC)CC)c1OCC[N+](CC)(CC)CC` [Gallamine triethiodide], for which the Z-score was inactive: -0.665.
Take `CCOC(=O)[N-]c1c[n+](N2CCOCC2)no1` [Molsidomine]: the Z-score is inactive: -0.0883.
Consider `C=C(c1ccc(C(=O)O)cc1)c1cc2c(cc1C)C(C)(C)CCC2(C)C` [Bexarotene], for which the Z-score was inactive: 0.136.
On to `O=C(O)[C@H]1/C(=C/CO)O[C@@H]2CC(=O)N21` [Clavulanate Potassium], for which the Z-score was inactive: 0.165.
In the case of `CC1=C(C/C=C(\C)CCC[C@H](C)CCC[C@H](C)CCCC(C)C)C(=O)c2ccccc2C1=O` [Phytonadione] it was inactive: 0.175.
`O=C(O)C1(C(=O)O)CCC1.[NH2-].[NH2-].[Pt+2]` [Carboplatin]: the Z-score was inactive: 1.63.
In the case of `COC(=O)C(N)Cc1ccc(Cl)cc1` (racemic) [DL-p-  Chlorophenyl alanine methyl ester HCl] it was inactive: -0.336; in that of `O=C(c1cncc(Br)c1)N1CCC(N2CCCC2)CC1`, inactive: 1.78.
In the case of `O=c1c(O)c(-c2ccc(O)c(O)c2)oc2cc(O)cc(O)c12` [Quercetin·2H2O] it was inactive: -0.279.
In the case of `O=c1c(O)c(-c2ccc(O)c(O)c2)oc2cc(O)cc(O)c12` [Quercetin dihydrate] it was inactive: -0.817; in that of `CC(C)Cc1ccc(C(C)C(=O)O)cc1` (centres undefined) [Ibuprofen], inactive: 1.05; in that of `Nc1nc2[nH]cc(CCc3ccc(C(=O)N[C@@H](CCC(=O)O)C(=O)O)cc3)c2c(=O)[nH]1` [Pemetrexed disodium heptahydrate], inactive: -0.0301.
Regarding `Nc1nc2[nH]cc(CCc3ccc(C(=O)N[C@@H](CCC(=O)O)C(=O)O)cc3)c2c(=O)[nH]1` [Pemetrexed Disodium], the Z-score is inactive: -0.322.
In the case of `COCCc1ccc(OCC(O)CNC(C)C)cc1` (centres undefined) [Metoprolol Tartrate] it was inactive: -0.218; in that of `OC[C@H]1O[C@@H](O[C@@H]2[C@@H](CO)OC(O)(CO)[C@H]2O)[C@H](O)[C@@H](O)[C@H]1O` (mixture of isomers) [Lactulose], inactive: 0.128; in that of `NCCS(=O)O` [Hypotaurine], inactive: -0.151.
In the case of `COc1cc(C(=O)O[C@H]2C/C(C)=C/CC/C(C)=C/[C@H](O)[C@@H]2C(C)C)ccc1O` [Tschimganidin] it was inactive: -0.032.
With `CC[C@@H]1/C=C(\C)C[C@H](C)C[C@H](OC)[C@H]2O[C@@](O)(C(=O)C(=O)N3CCCC[C@H]3C(=O)O[C@H](/C(C)=C/[C@@H]3CC[C@H](Cl)[C@H](OC)C3)[C@H](C)[C@@H](O)CC1=O)[C@H](C)C[C@@H]2OC` [Pimecrolimus], the Z-score was inactive: -0.16.
Consider `CC(C)NC[C@H](O)c1ccc(O)c(O)c1` [R(-)-Isoproterenol (+)-bitartrate], for which the Z-score is inactive: 0.0432.
